The exact form of at least one protein or probe is not confirmed. At least one verdict was read from the data and is not stated in words by the source.
Legend:
[1] = system: TaNAM-A1d (Triticum aestivum (178A allele)); assay: EMSA
[2] = system: TaNAM-A1c (Triticum aestivum); assay: EMSA

Sequence | binding result [1] | binding result [2]
TTTCAACAAGTGGTTACATACGGAACAAAATGAGTGAATCTACACT (double strand) [proTaHMA2like-7A EMSA probe (HMA2site2)] | binds | binds
GATTCCTAATGGGCCGGCGTACGCAACTGGTTTGTTACCGCGTGTCG (double strand) [proTaIDS3-7A EMSA probe (IDS3site2)] | binds | binds
AAGGATGGCCGGCACTTACGCAACCTGTCCTTAGACCCCCACAGAAC (double strand) [proTaPAO-4B EMSA probe (PAOsite2)] | binds | binds
